Results published in paper PMC4019850.
These are yes or no findings as the source states them, for the method shown. In cells and extracts the contact can be indirect. Some entries that bind do so weakly or less than the wild type. Tags and fused reporters may be left off the sequences shown.

Chains of the proteins cited; added tags and fusions are not shown. Lines headed by an entry give the natural chain unless they say otherwise; changes in a name come on top. Residues count along the entry.
UniProt P62993: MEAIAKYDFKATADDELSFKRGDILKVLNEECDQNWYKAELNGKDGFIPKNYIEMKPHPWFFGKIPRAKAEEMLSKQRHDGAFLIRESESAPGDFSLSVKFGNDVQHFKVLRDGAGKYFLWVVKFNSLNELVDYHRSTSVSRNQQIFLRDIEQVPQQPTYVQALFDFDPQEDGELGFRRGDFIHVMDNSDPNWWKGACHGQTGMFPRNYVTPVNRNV
GST fusion of the SH2 domain of GRB2: residues 60-152 of P62993
UniProt Q14160: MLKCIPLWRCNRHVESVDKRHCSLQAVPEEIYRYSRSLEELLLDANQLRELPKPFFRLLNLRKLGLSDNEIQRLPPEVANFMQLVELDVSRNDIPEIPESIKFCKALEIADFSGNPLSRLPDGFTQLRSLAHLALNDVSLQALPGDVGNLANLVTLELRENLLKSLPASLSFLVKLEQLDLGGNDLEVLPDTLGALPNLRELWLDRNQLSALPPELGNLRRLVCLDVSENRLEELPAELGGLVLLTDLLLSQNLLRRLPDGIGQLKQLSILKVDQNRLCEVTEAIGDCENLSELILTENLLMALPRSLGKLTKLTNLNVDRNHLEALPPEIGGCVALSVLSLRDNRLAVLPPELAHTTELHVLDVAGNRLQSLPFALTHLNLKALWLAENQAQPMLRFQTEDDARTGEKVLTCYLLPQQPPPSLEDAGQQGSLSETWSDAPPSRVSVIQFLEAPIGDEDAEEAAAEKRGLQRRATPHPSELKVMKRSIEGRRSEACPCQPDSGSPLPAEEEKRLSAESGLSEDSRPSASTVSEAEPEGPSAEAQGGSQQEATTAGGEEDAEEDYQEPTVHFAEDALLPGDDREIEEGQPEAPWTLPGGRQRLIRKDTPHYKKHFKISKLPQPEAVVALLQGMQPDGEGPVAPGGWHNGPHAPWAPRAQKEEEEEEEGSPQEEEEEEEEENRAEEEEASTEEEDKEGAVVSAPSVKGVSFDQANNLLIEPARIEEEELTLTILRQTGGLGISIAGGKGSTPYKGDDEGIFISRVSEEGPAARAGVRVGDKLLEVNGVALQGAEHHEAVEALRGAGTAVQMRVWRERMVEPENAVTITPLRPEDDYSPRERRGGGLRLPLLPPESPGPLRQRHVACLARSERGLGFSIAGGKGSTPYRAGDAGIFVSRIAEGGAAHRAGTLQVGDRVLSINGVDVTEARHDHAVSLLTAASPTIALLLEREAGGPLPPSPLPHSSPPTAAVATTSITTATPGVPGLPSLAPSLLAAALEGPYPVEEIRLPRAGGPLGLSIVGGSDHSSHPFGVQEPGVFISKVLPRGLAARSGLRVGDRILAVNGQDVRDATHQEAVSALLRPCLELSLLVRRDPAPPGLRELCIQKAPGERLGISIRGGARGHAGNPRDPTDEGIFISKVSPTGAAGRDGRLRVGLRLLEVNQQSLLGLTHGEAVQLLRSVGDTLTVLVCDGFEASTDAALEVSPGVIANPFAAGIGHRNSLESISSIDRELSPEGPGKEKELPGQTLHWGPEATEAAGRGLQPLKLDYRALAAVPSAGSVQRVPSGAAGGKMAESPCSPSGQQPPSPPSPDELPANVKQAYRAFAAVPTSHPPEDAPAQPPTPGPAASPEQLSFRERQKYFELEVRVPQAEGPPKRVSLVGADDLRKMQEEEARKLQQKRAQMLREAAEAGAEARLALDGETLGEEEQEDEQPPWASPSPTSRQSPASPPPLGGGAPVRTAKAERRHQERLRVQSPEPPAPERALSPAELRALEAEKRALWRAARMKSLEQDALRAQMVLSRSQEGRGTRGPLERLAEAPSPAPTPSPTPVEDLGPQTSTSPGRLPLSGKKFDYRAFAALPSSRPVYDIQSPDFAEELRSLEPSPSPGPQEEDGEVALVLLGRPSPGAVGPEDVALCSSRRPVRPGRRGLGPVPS

Assays:
[1] = target: GST fusion of the SH2 domain of GRB2 (UniProt P62993); experiment: pull-down; 50 μg GST fusion of a GRB2 domain incubated with lysate (RIPA buffer) of HeLa transfected with Flag-PTPN21, in presence or absence of Y527F SRC; glutathione-Sepharose 4B, 4°C; blot with anti-Flag; only the target purified
[2] = target: scaffold protein GRB2 (human (endogenous in HeLa)) (UniProt P62993); experiment: co-IP; HeLa co-transfected with Flag-PTPN21 and Y527F SRC; immunoprecipitation with anti-GRB2; blot with anti-Flag
HA-SCRIB = HA-SCRIB (UniProt Q14160); experiment: co-IP; H1299 transfected with HA-SCRIB, Flag-DUSP26 or both; immunoprecipitation with anti-Flag or with anti-HA; detection with anti-SCRIB or anti-DUSP26

Binder | binding [1] | binding [2] | binding (HA-SCRIB)
Flag-PTPN21 (enzyme, UniProt Q16825 1-1174) MPLPFGLKLKRTRRYTVSSKSCLVARIQLLNNEFVEFTLSVESTGQESLEAVAQRLELREVTYFSLWYYNKQNQRRWVDLEKPLKKQLDKYALEPTVYFGVVFYVPSVSQLQQEITRYQYYLQLKKDILEGSIPCTLEQAIQLAGLAVQADFGDFDQYESQDFLQKFALFPVGWLQDEKVLEEATQKVALLHQKYRGLTAPDAEMLYMQEVERMDGYGEESYPAKDSQGSDISIGACLEGIFVKHKNGRHPVVFRWHDIANMSHNKSFFALELANKEETIQFQTEDMETAKYIWRLCVARHKFYRLNQCNLQTQTVTVNPIRRRSSSRMSLPKPQPYVMPPPPQLHYNGHYTEPYASSQDNLFVPNQNGYYCHSQTSLDRAQIDLNGRIRNGSVYSAHSTNSLNNPQPYLQPSPMSSNPSITGSDVMRPDYLPSHRHSAVIPPSYRPTPDYETVMKQLNRGLVHAERQSHSLRNLNIGSSYAYSRPAALVYSQPEIREHAQLPSPAAAHCPFSLSYSFHSPSPYPYPAERRPVVGAVSVPELTNAQLQAQDYPSPNIMRTQVYRPPPPYPPPRPANSTPDLSRHLYISSSNPDLITRRVHHSVQTFQEDSLPVAHSLQEVSEPLTAARHAQLHKRNSIEVAGLSHGLEGLRLKERTLSASAAEVAPRAVSVGSQPSVFTERTQREGPEEAEGLRYGHKKSLSDATMLIHSSEEEEDEDFEEESGARAPPARAREPRPGLAQDPPGCPRVLLAGPLHILEPKAHVPDAEKRMMDSSPVRTTAEAQRPWRDGLLMPSMSESDLTTSGRYRARRDSLKKRPVSDLLSGKKNIVEGLPPLGGMKKTRVDAKKIGPLKLAALNGLSLSRVPLPDEGKEVATRATNDERCKILEQRLEQGMVFTEYERILKKRLVDGECSTARLPENAERNRFQDVLPYDDVRVELVPTKENNTGYINASHIKVSVSGIEWDYIATQGPLQNTCQDFWQMVWEQGIAIIAMVTAEEEGGREKSFRYWPRLGSRHNTVTYGRFKITTRFRTDSGCYATTGLKMKHLLTGQERTVWHLQYTDWPEHGCPEDLKGFLSYLEEIQSVRRHTNSTSDPQSPNPPLLVHCSAGVGRTGVVILSEIMIACLEHNEVLDIPRVLDMLRQQRMMLVQTLCQYTFVYRVLIQFLKSSRLI | no binding | binds | –
Flag-DUSP26 (enzyme, UniProt Q9BV47 1-211) MCPGNWLWASMTFMARFSRSSSRSPVRTRGTLEEMPTVQHPFLNVFELERLLYTGKTACNHADEVWPGLYLGDQDMANNRRELRRLGITHVLNASHSRWRGTPEAYEGLGIRYLGVEAHDSPAFDMSIHFQTAADFIHRALSQPGGKILVHCAVGVSRSATLVLAYLMLYHHLTLVEAIKKVKDHRGIIPNRGFLRQLLALDRRLRQGLEA | – | – | binds
